Source: patent US12180193B2, “Accelerating fibrosarcoma protein degrading compounds and associated methods of use” (Arvinas Operations, Inc., priority 2020, dated 2024)
Structures were worked out from names or drawings and are uncertain.

Amino acid sequences for entries named in this document (tags omitted).
UniProt P15056, whole entry G466V: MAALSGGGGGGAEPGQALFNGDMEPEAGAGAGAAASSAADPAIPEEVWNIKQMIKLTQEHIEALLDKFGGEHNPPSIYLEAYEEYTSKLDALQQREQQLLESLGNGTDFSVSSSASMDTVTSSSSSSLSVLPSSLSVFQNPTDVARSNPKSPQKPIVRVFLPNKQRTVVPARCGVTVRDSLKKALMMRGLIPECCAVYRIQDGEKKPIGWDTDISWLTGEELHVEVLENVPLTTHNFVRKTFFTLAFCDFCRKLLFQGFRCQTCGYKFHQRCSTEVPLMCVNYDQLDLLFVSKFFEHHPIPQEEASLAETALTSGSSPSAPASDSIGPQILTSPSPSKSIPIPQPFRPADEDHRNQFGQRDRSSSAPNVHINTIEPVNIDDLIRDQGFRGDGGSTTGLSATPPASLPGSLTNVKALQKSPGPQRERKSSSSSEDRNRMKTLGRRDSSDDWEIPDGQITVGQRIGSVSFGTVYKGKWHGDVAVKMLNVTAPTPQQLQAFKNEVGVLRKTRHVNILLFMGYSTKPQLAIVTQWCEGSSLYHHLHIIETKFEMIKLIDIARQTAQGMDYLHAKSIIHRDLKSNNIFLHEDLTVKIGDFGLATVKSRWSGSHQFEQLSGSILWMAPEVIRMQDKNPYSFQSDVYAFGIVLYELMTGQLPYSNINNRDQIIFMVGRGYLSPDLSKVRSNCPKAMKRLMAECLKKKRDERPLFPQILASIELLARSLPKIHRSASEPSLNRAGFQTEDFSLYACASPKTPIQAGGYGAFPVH
UniProt P15056, whole entry V600E: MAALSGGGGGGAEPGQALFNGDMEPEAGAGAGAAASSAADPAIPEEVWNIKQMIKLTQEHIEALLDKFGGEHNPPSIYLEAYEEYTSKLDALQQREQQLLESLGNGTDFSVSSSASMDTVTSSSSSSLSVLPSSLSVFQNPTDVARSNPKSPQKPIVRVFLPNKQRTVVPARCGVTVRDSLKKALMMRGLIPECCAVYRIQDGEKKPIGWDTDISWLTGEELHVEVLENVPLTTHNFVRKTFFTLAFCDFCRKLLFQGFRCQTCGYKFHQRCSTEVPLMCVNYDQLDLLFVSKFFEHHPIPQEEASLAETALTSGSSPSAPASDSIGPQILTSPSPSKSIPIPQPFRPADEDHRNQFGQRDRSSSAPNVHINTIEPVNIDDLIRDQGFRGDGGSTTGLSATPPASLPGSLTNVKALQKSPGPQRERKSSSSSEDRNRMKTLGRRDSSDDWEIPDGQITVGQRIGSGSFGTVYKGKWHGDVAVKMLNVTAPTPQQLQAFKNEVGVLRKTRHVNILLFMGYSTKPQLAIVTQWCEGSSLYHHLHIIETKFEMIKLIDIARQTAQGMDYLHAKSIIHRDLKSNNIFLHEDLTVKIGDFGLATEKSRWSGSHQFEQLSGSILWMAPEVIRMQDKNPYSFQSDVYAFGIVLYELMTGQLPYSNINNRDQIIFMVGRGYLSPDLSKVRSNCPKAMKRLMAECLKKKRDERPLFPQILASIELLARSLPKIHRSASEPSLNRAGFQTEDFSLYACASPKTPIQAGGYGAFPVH

What was measured:
[1] = molecular target: BRAF V600E (Homo sapiens, UniProt P15056, V600E); assay: Cellular assay of target protein degradation, T-Rex 293 cells stably transfected with HA-BRAF_V600E (HA immunofluorescence, high content imaging); settings: T-Rex 293 HA-BRAF V600E
Method: (§1) Protocol for a cellular assay of target protein degradation (T-Rex 293 cells). T-Rex 293 cells were purchased from Invitrogen (#R71007), and stably transfected with a pcDNA4/TO_HA-BRAF_V600E construct, using 400 ug Zeocin for selection. V600e cells are plated in Dulbecco's Modified Eagle Medium (DMEM; Gibco #11965118) containing 10% fetal bovine serum (FBS; Gibco #16000044) and 1 ng/mL doxycycline (Selleckchem #4163) at a density of 5,000 cells/well in 50 μl on poly-D-lysine (PDL) coated, black clear bottom 96-well plates (Corning #354640) and incubated for 24 hours at 37° C. with 5% C02. The following day 50 ul of tested compound was added at 2x concentration in DMEM with a final concentration ranging from 1 μM to 0.1 nM in 0.1% dimethylsulfoxide (DMSO), and incubated for 24 hours at 37° C. with 5% CO2. At the end of the experimental treatment, the media was flicked off and cells washed once with phosphate-buffered saline (PBS)++ (PBS with CaCl and MgCl) and gently replacing with 200 μl PBS++ per well. […] Plate was wash three times with 200 uL PBS++, and imaged on a high content reader (ImageXpress Micro XLS, Molecular Devices).
(§2) The concentration of exemplary compound that leads to half maximal degradation (DC50) as well as the maximum degradation observed (Dmax, conventionally expressed as a percentage of control), which are below in Table 2 for the exemplary compounds of Table 1.

[2] = molecular target: BRAF G466V (Homo sapiens, UniProt P15056, G466V); assay: Cellular assay of target protein degradation, T-Rex 293 cells stably transfected with HA-BRAF G466V (HA immunofluorescence, high content imaging); settings: T-Rex 293 HA-BRAF G466V
Method: as §1, with “a pcDNA4/TO_HA-BRAF G466V” for “a pcDNA4/TO_HA-BRAF_V600E”, “selection. G466V” for “selection. V600e”, “and 0.75” for “and 1”, “5% CO2.” for “5% C02.”, “from 30 nM” for “from 1 μM”, “to 3 pM” for “to 0.1 nM”
as §2

With `O=C1CCC(N2Cc3cc(N4CCC(CN5CC(Cc6ccc(-c7cnc8[nH]cc(C(=O)c9c(F)ccc(NS(=O)(=O)N%10CC[C@@H](F)C%10)c9F)c8c7)cc6)C5)CC4)ccc3C2=O)C(=O)N1` (stereo partly shown) the “BRaf V600E DMax” value ([1]; maximum degradation observed) was “B (35 < B < 70)”, the DC50 ([1]; read-out: BRaf V600E DC50, half maximal degradation) was 50 to 500 nM and the “BRaf G466V DMax” value ([2]; maximum degradation observed) was “A (A ≥ 70)”. The DC50 ([2]; read-out: BRaf G466V DC50, half maximal degradation) was 1 to 10 nM.
